Source: article PMC8660800
No constants are given. Whether binding was seen depends on the method and setting. Binding seen in cells or lysates may run through a third protein. Here binding means that the protein was enriched with, or labelled near, the bait; the list need not be complete. Values belong to the molecule of their own block, whether it stands above or below them.

Chains of the proteins cited; added tags and fusions are not shown.
UniProt P47756: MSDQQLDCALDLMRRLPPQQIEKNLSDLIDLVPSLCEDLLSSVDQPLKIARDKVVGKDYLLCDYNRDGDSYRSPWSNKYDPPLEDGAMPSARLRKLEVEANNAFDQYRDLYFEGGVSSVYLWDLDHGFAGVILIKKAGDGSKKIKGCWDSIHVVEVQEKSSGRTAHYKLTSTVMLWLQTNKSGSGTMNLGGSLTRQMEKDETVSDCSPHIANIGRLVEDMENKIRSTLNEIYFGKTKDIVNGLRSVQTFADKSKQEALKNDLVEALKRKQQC
UniProt Q9UFF9: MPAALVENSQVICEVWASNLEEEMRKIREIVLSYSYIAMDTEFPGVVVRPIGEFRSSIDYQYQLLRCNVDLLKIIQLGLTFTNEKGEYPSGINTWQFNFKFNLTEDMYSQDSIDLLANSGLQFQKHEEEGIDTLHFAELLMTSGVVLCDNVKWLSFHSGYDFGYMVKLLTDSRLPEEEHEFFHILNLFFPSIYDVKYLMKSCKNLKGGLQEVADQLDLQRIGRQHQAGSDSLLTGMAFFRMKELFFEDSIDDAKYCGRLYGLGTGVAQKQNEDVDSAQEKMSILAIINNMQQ
UniProt Q9C0C2: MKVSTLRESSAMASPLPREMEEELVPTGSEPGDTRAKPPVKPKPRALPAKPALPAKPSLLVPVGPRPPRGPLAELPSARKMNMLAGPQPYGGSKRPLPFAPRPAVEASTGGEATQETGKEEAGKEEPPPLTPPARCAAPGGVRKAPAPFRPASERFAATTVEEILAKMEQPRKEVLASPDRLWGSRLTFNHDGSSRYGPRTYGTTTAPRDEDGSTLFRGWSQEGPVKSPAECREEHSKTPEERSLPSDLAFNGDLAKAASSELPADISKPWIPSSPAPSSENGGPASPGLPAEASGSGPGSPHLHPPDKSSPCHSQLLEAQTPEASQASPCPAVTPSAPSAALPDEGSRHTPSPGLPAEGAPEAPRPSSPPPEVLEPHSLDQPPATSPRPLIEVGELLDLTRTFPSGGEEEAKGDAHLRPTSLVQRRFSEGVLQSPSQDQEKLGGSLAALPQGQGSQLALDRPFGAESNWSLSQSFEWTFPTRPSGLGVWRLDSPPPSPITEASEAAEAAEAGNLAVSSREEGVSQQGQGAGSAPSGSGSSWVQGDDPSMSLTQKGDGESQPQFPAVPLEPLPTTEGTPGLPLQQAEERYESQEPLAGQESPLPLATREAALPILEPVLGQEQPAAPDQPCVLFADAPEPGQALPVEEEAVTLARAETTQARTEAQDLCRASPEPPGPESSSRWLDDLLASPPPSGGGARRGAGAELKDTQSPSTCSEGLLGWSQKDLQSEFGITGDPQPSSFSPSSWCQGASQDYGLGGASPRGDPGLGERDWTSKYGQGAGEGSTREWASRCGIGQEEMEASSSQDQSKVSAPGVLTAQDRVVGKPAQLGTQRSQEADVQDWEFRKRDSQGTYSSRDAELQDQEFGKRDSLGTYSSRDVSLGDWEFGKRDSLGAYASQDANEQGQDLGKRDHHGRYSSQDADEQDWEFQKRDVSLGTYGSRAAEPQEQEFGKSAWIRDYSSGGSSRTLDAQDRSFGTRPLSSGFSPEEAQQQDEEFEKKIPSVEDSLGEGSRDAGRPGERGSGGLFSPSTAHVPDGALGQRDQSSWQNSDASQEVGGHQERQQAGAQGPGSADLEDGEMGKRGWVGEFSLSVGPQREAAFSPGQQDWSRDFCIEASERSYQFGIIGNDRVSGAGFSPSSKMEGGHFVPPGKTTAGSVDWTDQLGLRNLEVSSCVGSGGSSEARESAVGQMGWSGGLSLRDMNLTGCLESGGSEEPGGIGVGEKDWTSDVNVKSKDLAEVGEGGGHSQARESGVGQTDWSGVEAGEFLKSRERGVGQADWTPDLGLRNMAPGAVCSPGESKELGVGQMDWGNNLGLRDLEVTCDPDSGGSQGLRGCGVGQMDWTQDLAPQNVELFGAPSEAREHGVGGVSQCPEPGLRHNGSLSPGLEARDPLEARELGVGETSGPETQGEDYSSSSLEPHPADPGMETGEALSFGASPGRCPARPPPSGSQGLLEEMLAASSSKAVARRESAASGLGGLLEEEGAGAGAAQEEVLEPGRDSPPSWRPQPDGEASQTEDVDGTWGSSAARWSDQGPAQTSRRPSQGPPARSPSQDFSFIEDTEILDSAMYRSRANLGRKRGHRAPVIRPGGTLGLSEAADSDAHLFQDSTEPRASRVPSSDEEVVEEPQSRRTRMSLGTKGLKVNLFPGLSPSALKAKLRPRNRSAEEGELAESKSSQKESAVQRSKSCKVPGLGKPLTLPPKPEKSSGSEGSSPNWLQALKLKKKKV
UniProt O75175: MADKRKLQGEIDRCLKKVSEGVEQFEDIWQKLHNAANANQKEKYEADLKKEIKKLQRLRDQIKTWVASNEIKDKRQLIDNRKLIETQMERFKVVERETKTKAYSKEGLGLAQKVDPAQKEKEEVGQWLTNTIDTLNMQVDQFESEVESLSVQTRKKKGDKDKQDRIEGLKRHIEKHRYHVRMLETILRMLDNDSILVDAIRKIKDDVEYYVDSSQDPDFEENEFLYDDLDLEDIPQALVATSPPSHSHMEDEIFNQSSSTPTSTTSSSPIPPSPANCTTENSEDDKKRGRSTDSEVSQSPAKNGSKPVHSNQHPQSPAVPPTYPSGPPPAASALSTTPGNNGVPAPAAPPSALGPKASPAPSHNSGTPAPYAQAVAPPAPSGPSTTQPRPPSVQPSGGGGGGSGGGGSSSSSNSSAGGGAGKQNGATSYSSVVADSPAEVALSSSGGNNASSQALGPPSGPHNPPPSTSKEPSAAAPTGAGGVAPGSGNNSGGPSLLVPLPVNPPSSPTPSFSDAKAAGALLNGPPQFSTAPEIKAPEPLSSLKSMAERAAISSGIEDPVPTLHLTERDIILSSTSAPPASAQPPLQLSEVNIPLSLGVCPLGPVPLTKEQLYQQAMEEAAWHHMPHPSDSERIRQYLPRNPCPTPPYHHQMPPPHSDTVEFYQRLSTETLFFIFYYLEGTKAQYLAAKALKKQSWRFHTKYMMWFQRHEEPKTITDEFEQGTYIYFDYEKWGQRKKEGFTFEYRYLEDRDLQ
UniProt Q9NZN8: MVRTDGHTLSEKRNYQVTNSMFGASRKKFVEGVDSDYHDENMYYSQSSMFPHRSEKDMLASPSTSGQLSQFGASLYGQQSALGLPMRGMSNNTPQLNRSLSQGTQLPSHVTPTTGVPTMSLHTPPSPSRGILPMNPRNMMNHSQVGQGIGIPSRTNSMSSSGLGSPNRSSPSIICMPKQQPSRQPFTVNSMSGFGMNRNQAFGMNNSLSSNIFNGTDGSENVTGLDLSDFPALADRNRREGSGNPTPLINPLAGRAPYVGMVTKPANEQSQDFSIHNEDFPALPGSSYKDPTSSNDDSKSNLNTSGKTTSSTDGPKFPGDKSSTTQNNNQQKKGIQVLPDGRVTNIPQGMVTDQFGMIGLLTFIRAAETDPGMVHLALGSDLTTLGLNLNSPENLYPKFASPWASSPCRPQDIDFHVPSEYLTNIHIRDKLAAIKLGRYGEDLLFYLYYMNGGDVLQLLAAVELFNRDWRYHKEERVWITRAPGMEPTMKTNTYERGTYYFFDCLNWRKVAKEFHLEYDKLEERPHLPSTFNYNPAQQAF

Molecular target: FST-NOT1 (endogenous NOT1 with an N-terminal 3xFLAG-2xStrep tag) (human (endogenous in HeLa)) (UniProt A5YKK6)
Assay: affinity purification with mass spectrometry; FLAG IP (anti-FLAG M2 magnetic beads) of endogenously tagged FST-NOT1 from HeLa clone #47 lysate, parental HeLa as negative control; 20 mM Tris-HCl pH 7.5, 150 mM NaCl, 0.05-0.1% NP-40, 4 °C; eluted with 3xFLAG peptide; label-free (n = 4) and SILAC with 20 nM RMD or DMSO for 16 h

binding: binds
Molecule: CAPZB, endogenous (from UniProt P47756 1-272)

binding: binds
Molecule: CNOT8, endogenous (from UniProt Q9UFF9 1-292)

binding: binds
Molecule: TNKS1BP1, endogenous (from UniProt Q9C0C2 1-1729)

The remaining lines, values behind:

Molecule: CNOT3, endogenous (from UniProt O75175 1-753)
binding: binds

Molecule: NOT2, endogenous (from UniProt Q9NZN8 1-540)
binding: binds

B1: four and a half LIM domains protein 2 (FHL2), endogenous (protein, UniProt Q14192 1-279)
chain: MTERFDCHHCNESLFGKKYILREESPYCVVCFETLFANTCEECGKPIGCDCKDLSYKDRHWHEACFHCSQCRNSLVDKPFAAKEDQLLCTDCYSNEYSSKCQECKKTIMPGTRKMEYKGSSWHETCFICHRCQQPIGTKSFIPKDNQNFCVPCYEKQHAMQCVQCKKPITTGGVTYREQPWHKECFVCTACRKQLSGQRFTARDDFAYCLNCFCDLYAKKCAGCTNPISGLGGTKYISFEERQWHNDCFNCKKCSLSLVGRGFLTERDDILCPDCGKDI
binding: binds
